Measurements reported in PubChem BioAssay AID493246 (Drosophila RNAi Screening Center, 2011)

Purpose: 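Identify essential fly genes by loss of cell viability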 (primary screen)
Cell system: Drosophila Kc and S2R+ cells
Reagent: long dsRNA against Drosophila genes
Read-out: 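Cell number per well after knock-down, printed as raw plate values; calls were based on per-plate z-scores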
Reading the numbers: Kc cell number and S2R+ cell number: higher = more cells remaining
Active means: 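Counted as a hit if cell number falls by a z-score of at least 3 within its plate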
The screen tested about 21,000 reagents; this is an unselected part of those with a known target gene and a result. In the full data, 429 (2%) were called active. 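Values are raw and not normalised between plates; calls rest on per-plate z-scores that were not deposited.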 Names joined by + are all predicted targets of the reagent. No sequences are given here. Not stated in the record: the amount of reagent, the time to read-out.

gene | amplicon | Kc cell number, rep 1 | Kc cell number, rep 2 | S2R+ cell number, rep 1 | S2R+ cell number, rep 2 | outcome
Pfas | DRSC03480 | 1.34e6 | 1.34e6 | 7.27e5 | 9.25e5 | inactive
CG34253 | DRSC09531 | 1.36e6 | 1.43e6 | 1.09e6 | 1.31e6 | inactive
kz | DRSC18786 | 1.48e6 | 1.51e6 | 1.15e6 | 1.35e6 | inactive
CG30031 + deltaTry + CG30025 + 1 more | DRSC21262 | 1.52e6 | 1.56e6 | 1.18e6 | 1.26e6 | inactive
CG15096 | DRSC06525 | 1.46e6 | 1.66e6 | 1.33e6 | 1.42e6 | inactive
ND-75 | DRSC18686 | 1.40e6 | 1.49e6 | 7.57e5 | 8.68e5 | inactive
CG11756 | DRSC19424 | 1.64e6 | 1.55e6 | 1.18e6 | 1.28e6 | inactive
S1P | DRSC11810 | 1.37e6 | 1.40e6 | 1.22e6 | 1.34e6 | inactive
cta | DRSC03769 | 1.25e6 | 1.35e6 | 1.15e6 | 1.22e6 | inactive
Su(z)2 | DRSC07558 | 6.44e5 | 1.06e6 | 5.75e5 | 6.72e5 | active
CG2736 | DRSC04314 | 1.43e6 | 1.51e6 | 1.06e6 | 1.04e6 | inactive
CG31556 (retired record) | DRSC12122 | 1.40e6 | 1.42e6 | 1.02e6 | 1.15e6 | inactive
CG40498 | DRSC07786 | 6.16e5 | – | 8.47e5 | – | inactive
abd-A | DRSC13179 | 1.54e6 | 1.66e6 | 8.75e5 | 9.60e5 | inactive
abd-A | DRSC16897 | 2.90e5 | 2.73e5 | 3.62e5 | 4.22e5 | active
CG6733 | DRSC16103 | 1.56e6 | 1.68e6 | 1.05e6 | 1.10e6 | inactive
Pak3 | DRSC15017 | 1.52e6 | 1.56e6 | 1.11e6 | 1.13e6 | inactive
CG14860 | DRSC14983 | 1.39e6 | 1.48e6 | 1.31e6 | 1.49e6 | inactive
CG32548 | DRSC19627 | 1.57e6 | 1.56e6 | 1.15e6 | 1.31e6 | inactive
CG32548 | DRSC19982 | 1.69e6 | 1.71e6 | 1.11e6 | 1.20e6 | inactive
CG42820 + CG42819 | DRSC02264 | 1.65e6 | 1.74e6 | 1.36e6 | 1.50e6 | inactive
CG42820 + CG42819 | DRSC02265 | 1.81e6 | 1.87e6 | 1.11e6 | 1.30e6 | inactive
CG4730 | DRSC15633 | 1.61e6 | 1.56e6 | 9.68e5 | 1.08e6 | inactive
Lsm12a | DRSC19702 | 1.79e6 | 1.90e6 | 1.13e6 | 1.24e6 | inactive
Mal-A2 | DRSC07460 | 1.53e6 | 1.63e6 | 1.28e6 | 1.45e6 | inactive
flr | DRSC09787 | 1.26e6 | 1.32e6 | 1.37e6 | 1.06e6 | inactive
CG30423 | DRSC04013 | 1.41e6 | 1.50e6 | 9.74e5 | 1.05e6 | inactive
yrt | DRSC16559 | 1.59e6 | 1.64e6 | 1.42e6 | 1.53e6 | inactive
Rich | DRSC11607 | 1.44e6 | 1.47e6 | 1.33e6 | 1.34e6 | inactive
CG32365 | DRSC10040 | 1.44e6 | 1.37e6 | 1.28e6 | 1.26e6 | inactive
CG32365 | DRSC10041 | 2.15e5 | 2.43e5 | 4.58e5 | 5.88e5 | active
CG32365 | DRSC10977 | 1.25e6 | 1.21e6 | 5.74e5 | 6.99e5 | active
Med | DRSC16737 | 1.38e6 | 1.50e6 | 6.18e5 | 7.39e5 | active
Cda4 | DRSC20623 | 1.47e6 | 1.51e6 | 1.01e6 | 1.09e6 | inactive
Cda4 | DRSC20641 | 1.43e6 | 1.45e6 | 1.04e6 | 1.09e6 | inactive
Cda4 | DRSC20642 | 1.46e6 | 1.49e6 | 1.06e6 | 1.10e6 | inactive
CG13760 | DRSC18617 | 1.50e6 | 1.52e6 | 1.02e6 | 1.12e6 | inactive
CG31211 | DRSC14953 | 1.40e6 | 1.57e6 | 1.04e6 | 1.21e6 | inactive
CG31211 | DRSC15344 | 1.80e6 | 1.97e6 | 1.40e6 | 1.54e6 | inactive
CG2811 | DRSC04318 | 1.56e6 | 1.56e6 | 1.17e6 | 1.38e6 | inactive
Cpr72Ea | DRSC10451 | 1.62e6 | 1.62e6 | 1.32e6 | 1.41e6 | inactive
Son | DRSC16400 | 1.37e6 | 1.45e6 | 1.33e6 | 1.45e6 | inactive
Rab10 | DRSC20572 | 1.49e6 | 1.58e6 | 9.46e5 | 1.10e6 | inactive
CG13501 | DRSC04146 | 1.70e6 | 1.82e6 | 1.27e6 | 3.22e5 | inactive
zuc | DRSC02160 | 1.41e6 | 1.50e6 | 1.29e6 | 1.26e6 | inactive
CG32650 | DRSC19899 | 5.50e5 | – | 9.24e5 | – | inactive
Top2 | DRSC03459 | 1.58e6 | 1.80e6 | 1.23e6 | 3.64e5 | inactive
CG18540 | DRSC06767 | 1.47e6 | 1.51e6 | 1.04e6 | 1.14e6 | inactive
CG6576 | DRSC10663 | 1.31e6 | 1.39e6 | 1.25e6 | 1.27e6 | inactive
Atac3 | DRSC08579 | 1.41e6 | 1.32e6 | 9.72e5 | 1.22e6 | inactive
CG1640 | DRSC19750 | 6.69e5 | – | 9.33e5 | – | inactive
Ugt304A1 | DRSC15127 | 1.62e6 | 1.56e6 | 1.34e6 | 1.41e6 | inactive
lectin-24A | DRSC00604 | 1.67e6 | 1.63e6 | 1.13e6 | 1.29e6 | inactive
Dh44 | DRSC12747 | 1.52e6 | 1.77e6 | 1.06e6 | 1.30e6 | inactive
Dh44 | DRSC16409 | 1.40e6 | 1.42e6 | 1.22e6 | 1.33e6 | inactive
CG4822 | DRSC00669 | 1.29e6 | 1.31e6 | 7.99e5 | 7.16e5 | inactive
Lcp65Ag3 + Lcp65Ag2 + Lcp65Ag1 | DRSC11214 | 1.54e6 | 1.46e6 | 1.25e6 | 1.24e6 | inactive
Lcp65Ag3 + Lcp65Ag2 + Lcp65Ag1 | DRSC11215 | 1.45e6 | 1.24e6 | 1.21e6 | 1.22e6 | inactive
Gr64c | DRSC08445 | 1.64e6 | 1.20e6 | 1.09e6 | 1.27e6 | inactive

Records above whose gene name starts with S or s:
gene | amplicon | Kc cell number, rep 1 | Kc cell number, rep 2 | S2R+ cell number, rep 1 | S2R+ cell number, rep 2 | outcome
S1P | DRSC11810 | 1.37e6 | 1.40e6 | 1.22e6 | 1.34e6 | inactive
Su(z)2 | DRSC07558 | 6.44e5 | 1.06e6 | 5.75e5 | 6.72e5 | active
Son | DRSC16400 | 1.37e6 | 1.45e6 | 1.33e6 | 1.45e6 | inactive
